Record: PubChem BioAssay AID1508597 (Cure First, 2020)

- Screen: 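Genes whose silencing sensitises or protects ovarian cancer cells against rucaparib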 (primary screen)
- Cell system: human ovarian carcinoma lines grown from tumours: OCI-P5x (papillary serous) and OCI-C5x (clear cell)
- Reagents: siRNA pool against human genes, 1.25 pmol siRNA per well
- Timing: 72 h or 96 h, depending on the cell culture
- Treatment: rucaparib 20 µM (about IC30) or vehicle, present until read-out
- Detection: 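Luminescent ATP-based viability assay read 72 or 96 h after transfection, depending on culture, given as normalised percent viability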
- Reading the numbers: viability, normalised: higher = more viable cells remaining
- Hit rule: 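Active when normalised viability falls below 80 percent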
- Calls: active = viability under 80%; inactive = viability 80% or more
The deposit covers about 2,100 reagents; below is a random part of them. 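Calls flag viability under 80% in either arm, not effects specific to rucaparib; the reference for percent is not stated.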 Unmarked entries are inactive. Not given: the 100% reference.

For HAT1, rucaparib or vehicle Rucaparib, cell line OCI-C5x (clear cell), technical replicate 1, the values are viability, normalised (%) = 67.7 (active).
With HAT1, rucaparib or vehicle Rucaparib, cell line OCI-C5x (clear cell), technical replicate 2, the entry reads viability, normalised (%) = 59.9 (active).
HAT1, rucaparib or vehicle Rucaparib, cell line OCI-C5x (clear cell), technical replicate 3 showed viability, normalised (%) = 56.9 (active).
HAT1, rucaparib or vehicle Rucaparib, cell line OCI-P5x (serous), technical replicate 1 scored viability, normalised (%) = 56.7 (active).
HAT1, rucaparib or vehicle Rucaparib, cell line OCI-P5x (serous), technical replicate 2 gave viability, normalised (%) = 59.7 (active).
HAT1, rucaparib or vehicle Rucaparib, cell line OCI-P5x (serous), technical replicate 3 gave viability, normalised (%) = 77.6 (active).
HAT1, rucaparib or vehicle Vehicle, cell line OCI-C5x (clear cell), technical replicate 1 showed viability, normalised (%) = 63.7 (active).
With HAT1, rucaparib or vehicle Vehicle, cell line OCI-C5x (clear cell), technical replicate 2, the values are viability, normalised (%) = 56.8 (active).
HAT1, rucaparib or vehicle Vehicle, cell line OCI-C5x (clear cell), technical replicate 3 scored viability, normalised (%) = 71.9 (active).
For HAT1, rucaparib or vehicle Vehicle, cell line OCI-P5x (serous), technical replicate 1, the values are viability, normalised (%) = 61.1 (active).
For HAT1, rucaparib or vehicle Vehicle, cell line OCI-P5x (serous), technical replicate 2, the values are viability, normalised (%) = 76.2 (active).
For HAT1, rucaparib or vehicle Vehicle, cell line OCI-P5x (serous), technical replicate 3, the values are viability, normalised (%) = 75 (active).
For PCDHB9, rucaparib or vehicle Rucaparib, cell line OCI-C5x (clear cell), technical replicate 1, the values are viability, normalised (%) = 49.4 (active).
With PCDHB9, rucaparib or vehicle Rucaparib, cell line OCI-C5x (clear cell), technical replicate 2, the values are viability, normalised (%) = 56.8 (active).
With PCDHB9, rucaparib or vehicle Rucaparib, cell line OCI-C5x (clear cell), technical replicate 3, the entry reads viability, normalised (%) = 44.8 (active).
PCDHB9, rucaparib or vehicle Rucaparib, cell line OCI-P5x (serous), technical replicate 1 showed viability, normalised (%) = 60.3 (active).
With PCDHB9, rucaparib or vehicle Rucaparib, cell line OCI-P5x (serous), technical replicate 2 the deposit lists viability, normalised (%) = 60.3 (active).
With PCDHB9, rucaparib or vehicle Rucaparib, cell line OCI-P5x (serous), technical replicate 3, the values are viability, normalised (%) = 61.5 (active).
For PCDHB9, rucaparib or vehicle Vehicle, cell line OCI-C5x (clear cell), technical replicate 1 the deposit lists viability, normalised (%) = 53.2 (active).
For PCDHB9, rucaparib or vehicle Vehicle, cell line OCI-C5x (clear cell), technical replicate 2, the values are viability, normalised (%) = 54.5 (active).
PCDHB9, rucaparib or vehicle Vehicle, cell line OCI-C5x (clear cell), technical replicate 3 scored viability, normalised (%) = 57.2 (active).
For PCDHB9, rucaparib or vehicle Vehicle, cell line OCI-P5x (serous), technical replicate 1 the deposit lists viability, normalised (%) = 70.7 (active).
For PCDHB9, rucaparib or vehicle Vehicle, cell line OCI-P5x (serous), technical replicate 2 the deposit lists viability, normalised (%) = 80.8.
For PCDHB9, rucaparib or vehicle Vehicle, cell line OCI-P5x (serous), technical replicate 3, the entry reads viability, normalised (%) = 92.2.
For REV3L, rucaparib or vehicle Rucaparib, cell line OCI-C5x (clear cell), technical replicate 1 the deposit lists viability, normalised (%) = 63.9 (active).
With REV3L, rucaparib or vehicle Rucaparib, cell line OCI-C5x (clear cell), technical replicate 2 the deposit lists viability, normalised (%) = 47.8 (active).
REV3L, rucaparib or vehicle Rucaparib, cell line OCI-C5x (clear cell), technical replicate 3 showed viability, normalised (%) = 52 (active).
For REV3L, rucaparib or vehicle Rucaparib, cell line OCI-P5x (serous), technical replicate 1 the deposit lists viability, normalised (%) = 55.6 (active).
REV3L, rucaparib or vehicle Rucaparib, cell line OCI-P5x (serous), technical replicate 2 gave viability, normalised (%) = 37.3 (active).
With REV3L, rucaparib or vehicle Rucaparib, cell line OCI-P5x (serous), technical replicate 3 the deposit lists viability, normalised (%) = 64.6 (active).
With REV3L, rucaparib or vehicle Vehicle, cell line OCI-C5x (clear cell), technical replicate 1, the values are viability, normalised (%) = 38.5 (active).
With REV3L, rucaparib or vehicle Vehicle, cell line OCI-C5x (clear cell), technical replicate 2, the entry reads viability, normalised (%) = 37.8 (active).
For REV3L, rucaparib or vehicle Vehicle, cell line OCI-C5x (clear cell), technical replicate 3, the values are viability, normalised (%) = 50.5 (active).
For REV3L, rucaparib or vehicle Vehicle, cell line OCI-P5x (serous), technical replicate 1, the entry reads viability, normalised (%) = 37 (active).
REV3L, rucaparib or vehicle Vehicle, cell line OCI-P5x (serous), technical replicate 2 gave viability, normalised (%) = 49.1 (active).
REV3L, rucaparib or vehicle Vehicle, cell line OCI-P5x (serous), technical replicate 3 scored viability, normalised (%) = 43.6 (active).
For RYR1, rucaparib or vehicle Rucaparib, cell line OCI-C5x (clear cell), technical replicate 1, the entry reads viability, normalised (%) = 41.6 (active).
RYR1, rucaparib or vehicle Rucaparib, cell line OCI-C5x (clear cell), technical replicate 2 scored viability, normalised (%) = 38.3 (active).
RYR1, rucaparib or vehicle Rucaparib, cell line OCI-C5x (clear cell), technical replicate 3 showed viability, normalised (%) = 32.4 (active).
For RYR1, rucaparib or vehicle Rucaparib, cell line OCI-P5x (serous), technical replicate 1, the values are viability, normalised (%) = 29.1 (active).
RYR1, rucaparib or vehicle Rucaparib, cell line OCI-P5x (serous), technical replicate 2 showed viability, normalised (%) = 33.6 (active).
RYR1, rucaparib or vehicle Rucaparib, cell line OCI-P5x (serous), technical replicate 3 scored viability, normalised (%) = 36.7 (active).
RYR1, rucaparib or vehicle Vehicle, cell line OCI-C5x (clear cell), technical replicate 1 scored viability, normalised (%) = 44 (active).
RYR1, rucaparib or vehicle Vehicle, cell line OCI-C5x (clear cell), technical replicate 2 gave viability, normalised (%) = 30.4 (active).
With RYR1, rucaparib or vehicle Vehicle, cell line OCI-C5x (clear cell), technical replicate 3, the entry reads viability, normalised (%) = 34.6 (active).
With RYR1, rucaparib or vehicle Vehicle, cell line OCI-P5x (serous), technical replicate 1, the entry reads viability, normalised (%) = 53.2 (active).
With RYR1, rucaparib or vehicle Vehicle, cell line OCI-P5x (serous), technical replicate 2 the deposit lists viability, normalised (%) = 49.8 (active).
RYR1, rucaparib or vehicle Vehicle, cell line OCI-P5x (serous), technical replicate 3 showed viability, normalised (%) = 67.2 (active).

Laid out differently: results already given.
{"gene knocked down":"REV3L","rucaparib or vehicle":"Rucaparib","cell line":"OCI-C5x (clear cell)","technical replicate":"2","viability, normalised (%)":"47.8 (active)"}
{"gene knocked down":"REV3L","rucaparib or vehicle":"Rucaparib","cell line":"OCI-C5x (clear cell)","technical replicate":"3","viability, normalised (%)":"52 (active)"}
{"gene knocked down":"REV3L","rucaparib or vehicle":"Rucaparib","cell line":"OCI-P5x (serous)","technical replicate":"1","viability, normalised (%)":"55.6 (active)"}
